Assay results from patent publication US20030092010A1, “Molecular switches” (priority 1999, published 2003).
For at least one compound, name, drawing or mass did not settle the structure.

Tested on: DNA sequence AAAAAGGCG
Test: phage ELISA: zinc finger phage binding to DNA target site in presence and absence of distamycin A
Details: distamycin concentration varied, DNA concentration constant at 2 nM

**Q.** For `Cn1cc(NC(=O)c2cc(NC(=O)c3cc(NC=O)cn3C)cn2C)cc1C(=O)NCCC(=N)N` [Distamycin A], which “distamycin concentration at which induction of higher affinity DNA binding is observed” value is on record?
**A.** Its value is 10^−6M-10^−7M.
